This assay deals with MX-1 breast xenograft, nude mice, tumor weight T/C. In words: NCI In Vivo Anticancer Drug Screen. Data for tumor model Human Mammary Carcinoma MX-1 Xenograft (intrarenal inoculation) in NU/NU Swiss (nude) mice. The note with it: T/C endpoint: mean tumor weight change, higher T/C = larger tumour; for T/C: evaluated on day 11. The gist of the method:
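Mice carrying the implanted tumor receive either test agent or vehicle. Tumor size or survival is then recorded for both groups. Results are stated as the treated-to-control quotient.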

[1] abbreviates: dose: 20.0 mg/kg/injection, schedule: Q04DX003 (sc), vehicle: saline.
[2] abbreviates: dose: 1200.0 mg/kg/injection, schedule: Q04DX003 (sc), vehicle: suspension in saline.
The mark [3] stands for this setting: dose: 200.0 mg/kg/injection, schedule: Q01DX010 (sc), vehicle: saline with Tween-80.
Setting [4] is: dose: 300.0 mg/kg/injection, schedule: Q04DX003 (sc), vehicle: saline.
The mark [5] stands for this setting: dose: 450.0 mg/kg/injection, schedule: Q04DX003 (sc), vehicle: saline.
Setting [6] is: dose: 900.0 mg/kg/injection, schedule: Q04DX003 (sc), vehicle: saline.
Setting [7] is: dose: 600.0 mg/kg/injection, schedule: Q04DX003 (sc), vehicle: Klucel (hydroxypropylcellulose) (HPC).

The list is a part of this screen's results and no random one: it is rich in T/C values a quarter to a half above the control, in often repeated tests (any T/C) and in doses without a T/C. Other doses and runs of a compound stand elsewhere. T/C gives the treated animals as a percentage of the vehicle group. Schedule codes are those of the source, read here as Q, the interval in days (D) or hours (H), X, the number of doses. Some T/C values are negative: the treated tumours shrank. Some entries hold several experiments; the results are listed from low to high. Signs of the kind (2×) say how often a value occurs here. Some T/C values are followed by the survivors on the day toxicity was checked, most often the fifth; without a count, all were alive then. Some entries give survivors of the animals treated and no T/C: the source holds a T/C of zero for them, seemingly a mark for toxic or unscored doses. Counts of survivors are from the toxicity check (mostly the fifth day) where no day follows; animals may have died later. *1 amine or outer side, *2 acyl side, *3 side chain or, on linkers, in order; H or OH if unused. Where a SMILES comes first, the peptide text is derived from it. [ ]: non-standard residue; d: D form. The star is where a group is joined. X2 = CCC(=O)CC1CC(C)CC(C(=O)[*:2])N1[*:1]; X1 = CCCCCCCCC(C)C(=O)*; Aib = CC(C)(N)C(=O)O; X3 = CC(CN(C)CCO)N*

T/C and survivor count data for 17 compounds are collected here from PubChem BioAssay AID296 (DTP/NCI, 2004).

Consider `Nc1ncn(C2OC(CO)C(O)C2O)c(=O)n1` (stereo not given), for which the T/C by setting is: (dose: 0.19 mg/kg/injection, schedule: Q01DX010 (sc), vehicle: saline) 144 % of control [2 of 2 alive on day 11]; (dose: 150.0 mg/kg/injection, schedule: Q04DX003 (sc), vehicle: suspension in saline) -56, 6, 10 % of control; (dose: 300.0 mg/kg/injection, schedule: Q04DX003 (sc), vehicle: suspension in saline) 1, 2, 3 % of control; (dose: 600.0 mg/kg/injection, schedule: Q04DX003 (sc), vehicle: suspension in saline) -81 [4 of 6 alive on day 11], -59, -30, -7 % of control; under setting [2], -69 [5 of 6 alive on day 11], -66, 2 % of control [5 of 6 alive on day 11]. Also, the survivor count (dose: 1.5 mg/kg/injection, schedule: Q01DX010 (sc), vehicle: saline) is reported as 0 of 3 on day 11; the survivor count (dose: 3.0 mg/kg/injection, schedule: Q01DX010 (sc), vehicle: saline) is reported as 0 of 3 on day 11; the survivor count (dose: 6.0 mg/kg/injection, schedule: Q01DX010 (sc), vehicle: saline) was 0 of 3 on day 11; the survivor count (dose: 12.0 mg/kg/injection, schedule: Q01DX010 (sc), vehicle: saline) was 0 of 3 on day 11; the survivor count under setting [1] was 1 of 6 on day 11; the survivor count (dose: 40.0 mg/kg/injection, schedule: Q04DX003 (sc), vehicle: saline) was 3 of 6 on day 11. For the same compound, the survivor count by setting is: under setting [2], 2 of 5 on day 11; (dose: 1600.0 mg/kg/injection, schedule: Q04DX003 (sc), vehicle: suspension in saline) 3 of 6 on day 11.

As to `Cc1cc(NCCCCCCCNc2cc(C)nc3cc(N)ccc23)c2ccc(N)cc2n1`, the survivor count (dose: 100.0 mg/kg/injection, schedule: Q01DX010 (sc), vehicle: saline with Tween-80) is 0 of 3 on day 11 and 0 of 6 on day 11.

With `COC1/C=C\C=C(/C)C(=O)NC2=CC(=O)C=C(C2=O)C(OC)C(C)CC(OC)C(OC)C(C)/C=C(/C)C1OC(N)=O` (stereo not given), for the setting “dose: 18.0 mg/kg/injection, schedule: Q04DX003 (sc), vehicle: Klucel (hydroxypropylcellulose) (HPC)”, the survivor count is given as 1 of 6 on day 11.

With `COP12(OCCO1)SC(C(F)(F)F)=C(C(F)(F)F)S2`, the survivor count by setting is: (dose: 500.0 mg/kg/injection, schedule: Q04DX003 (sc), vehicle: saline with Tween-80) 3 of 6 on day 11; (dose: 1000.0 mg/kg/injection, schedule: Q04DX003 (sc), vehicle: saline with Tween-80) 2 of 6 on day 11.

Consider `COC(=O)C[C@](O)(CCC(C)(C)O)C(=O)O[C@@H]1C(OC)=C[C@]23CCCN2CCc2cc4c(cc2[C@H]13)OCO4`, for which the survivor count (dose: 2.5 mg/kg/injection, schedule: Q04DX003 (sc), vehicle: saline) is given as 3 of 6 on day 11; the survivor count (dose: 5.0 mg/kg/injection, schedule: Q04DX003 (sc), vehicle: saline) is 1 of 5 on day 11; the survivor count (dose: 10.0 mg/kg/injection, schedule: Q04DX003 (sc), vehicle: saline) is given as 0 of 6 on day 11; the survivor count under setting [1] is recorded as 0 of 6 on day 11.

Turning to `O=Cc1ccc([N+](=O)[O-])s1`, under setting [3], the survivor count is recorded as 0 of 3 on day 11.

Consider `O=C1CN(CO)C(=O)N1CO`, for which the T/C (dose: 50.0 mg/kg/injection, schedule: Q04DX003 (ip), vehicle: saline) is 139 % of control.

`O=[N+]([O-])c1ccc([I+]c2ccccc2)cc1`: the survivor count (dose: 150.0 mg/kg/injection, schedule: Q04DX003 (ip), vehicle: Klucel (hydroxypropylcellulose) (HPC)) is recorded as 0 of 6 on day 11; the survivor count (dose: 300.0 mg/kg/injection, schedule: Q04DX003 (ip), vehicle: Klucel (hydroxypropylcellulose) (HPC)) was 0 of 6 on day 11; the survivor count (dose: 600.0 mg/kg/injection, schedule: Q04DX003 (ip), vehicle: Klucel (hydroxypropylcellulose) (HPC)) was 0 of 6 on day 11.

`C/C=C/c1cc2n(c1)C(=O)c1cc(OC3OC(C)C(NC)C(C)(O)C3O)c(C)c(O)c1NC2O` (stereo not given): where the note is “dose: 800.0 micrograms/kg/injection, schedule: Q04DX003 (sc), vehicle: saline”, the T/C is 137 % of control.

As to `Nc1ncnc2c1ncn2C1OC(CO)C(O)C1O` (stereo not given), the T/C runs as follows: (dose: 37.5 mg/kg/injection, schedule: Q04DX003 (sc), vehicle: saline) -23, 29, 38, 54, 57, 60, 66, 70, 85, 95, 107, 108, 135 % of control; (dose: 75.0 mg/kg/injection, schedule: Q04DX003 (sc), vehicle: saline) -55, 11, 15, 22, 23, 25, 38, 41, 53, 54 (2×), 64, 77, 90 % of control; (dose: 150.0 mg/kg/injection, schedule: Q04DX003 (sc), vehicle: saline) -98, -69 [4 of 6 alive on day 11], -37, 2, 4 [2 of 2 alive on day 11], 17, 20, 25, 33, 50, 54, 95 % of control; under setting [4], -29 [4 of 6 alive on day 11], -12 [4 of 6 alive on day 11], 13, 29 % of control [5 of 6 alive on day 11]; (dose: 400.0 mg/kg/injection, schedule: Q04DX003 (sc), vehicle: saline) 136 % of control. Also, the survivor count under setting [4] is on record as 0 of 3 on day 11, 0 of 6 on day 11, 1 of 6 on day 11, 1 of 5 on day 11, 2 of 6 on day 11.

For `CCOC(=O)C(N)CSC(=O)NC` (stereo not given), the T/C is -70, 7, 44, 70 % of control (dose: 225.0 mg/kg/injection, schedule: Q04DX003 (sc), vehicle: saline); -100, -64, 18 % of control under setting [5]; -100, -65, 3 % of control under setting [6]. Besides, the survivor count is given as 3 of 6 on day 11 under setting [5]; 3 of 5 on day 11 under setting [6]; 0 of 6 on day 11 (dose: 1800.0 mg/kg/injection, schedule: Q04DX003 (sc), vehicle: saline).

Consider `N#CCCN(C(=S)Nc1cccc(C(F)(F)F)c1)C1CCCCC1`, for which the T/C is 149 % of control under setting [7] and 137 % of control (dose: 1200.0 mg/kg/injection, schedule: Q04DX003 (sc), vehicle: Klucel (hydroxypropylcellulose) (HPC)).

As for `CC1(C)OCC(CO)(Nc2nc(N3CC3)nc(N3CC3)n2)CO1`, the survivor count by setting is: (dose: 2.5 mg/kg/injection, schedule: Q01DX010 (sc), vehicle: saline) 1 of 3 on day 11; (dose: 5.0 mg/kg/injection, schedule: Q01DX010 (sc), vehicle: saline) 0 of 3 on day 11; (dose: 10.0 mg/kg/injection, schedule: Q01DX010 (sc), vehicle: saline) 0 of 3 on day 11.

Take `COC1CC2C=C(C)/C=C/C=C/C(=O)NC(c3ccccc3)C/C=C/CCC(O)CC(=O)C2=C1O` (stereo not given): the survivor count under setting [7] is listed as 2 of 6 on day 11.

As to `CCCCCCCCC(C)C(=O)N1CCCC1C(=O)N1C(CC(=O)CC)CC(C)CC1C(=O)NC(C)C(=O)NC(C)(C)C(=O)NC(C)(C)C(=O)NC(C(=O)NC(C)C(=O)NC(C)(C)C(=O)NC(C)(C)C(=O)NC(C)CN(C)CCO)C(C)CC` (stereo not given) (X1-P[X2]A[Aib][Aib]IA[Aib][Aib]-X3; configuration not given here), the T/C (dose: 5.0 mg/kg/injection, schedule: Q04DX003 (sc), vehicle: Klucel (hydroxypropylcellulose) (HPC)) was 144 % of control. Besides, the survivor count (dose: 10.0 mg/kg/injection, schedule: Q04DX003 (sc), vehicle: Klucel (hydroxypropylcellulose) (HPC)) is 0 of 6 on day 11.

Take `C1CN2CCC1CC2`: the survivor count by setting is: (dose: 18.75 mg/kg/injection, schedule: Q04DX003 (sc), vehicle: saline with Tween-80) 0 of 6 on day 11; (dose: 37.5 mg/kg/injection, schedule: Q04DX003 (sc), vehicle: saline with Tween-80) 0 of 6 on day 11.

Regarding `C/C(=N/NC(N)=S)c1ccc2ccccc2c1`, under setting [3], the survivor count was 1 of 3 on day 11.
